Data as given in PubChem BioAssay AID652243 (Drosophila RNAi Screening Center, 2013)
Assay: 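Fly regulators of androgen-dependent reporter output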 (primary screen). System: Drosophila S2R+ cells. Knock-down reagent: long dsRNA against Drosophila genes. Time to read-out: 72 h (48 h, then 24 h hormone). Treatment: synthetic androgen R1881 at 10 nM for 24 h. Measured: 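Firefly light from an androgen-responsive reporter and Renilla control light per well, raw and unnormalised, for each of two replicates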. Reading the numbers: firefly reporter light: higher = more light from androgen-responsive reporter; Renilla control light: higher = more constitutive control signal (cell number, transfection). Rule for the call: 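Across duplicate plates, a knock-down whose log firefly/Renilla ratio shifted a set fold down or up from the GFP/LacZ control mean was a hit; the downward cut appears as both 1.5 and 3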. Calls: active = hit: reporter lowered or raised; inactive = no hit.
The deposit covers about 24,000 reagents; shown is an unselected part of those that have a named target and a result. Over the whole deposit, 246 (1%) were called active. 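Plates not normalised; calls are printed but the firefly/Renilla ratio behind them is not deposited; fold cut for lowering reported inconsistently.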 The raw values are shown without normalisation. Reagents against one gene are numbered here. Names joined by + are all predicted targets of the reagent. No sequences are given here. Not given: the amount of reagent.

With knock-down of CG5762, the screen gave firefly reporter light, replicate 1 = 74360; firefly reporter light, replicate 2 = 1.04e5; Renilla control light, replicate 1 = 4.13e5; Renilla control light, replicate 2 = 4.87e5; inactive. After knock-down of ND-20L the results were firefly reporter light, replicate 1 = 2.37e5; firefly reporter light, replicate 2 = 3.06e5; Renilla control light, replicate 1 = 2.21e6; Renilla control light, replicate 2 = 3.85e6; inactive. Vajk1 #1 scored firefly reporter light, replicate 1 = 2.79e5; firefly reporter light, replicate 2 = 2.85e5; Renilla control light, replicate 1 = 2.24e6; Renilla control light, replicate 2 = 2.39e6; inactive. Vajk1 #2 gave firefly reporter light, replicate 1 = 2.81e5; firefly reporter light, replicate 2 = 2.14e5; Renilla control light, replicate 1 = 4.76e5; Renilla control light, replicate 2 = 4.91e5; inactive. After knock-down of eIF3d2, the screen gave firefly reporter light, replicate 1 = 72217; firefly reporter light, replicate 2 = 66704; Renilla control light, replicate 1 = 3.96e5; Renilla control light, replicate 2 = 5.14e5; inactive. CG33098 gave firefly reporter light, replicate 1 = 6.51e5; firefly reporter light, replicate 2 = 1.13e6; Renilla control light, replicate 1 = 9.37e5; Renilla control light, replicate 2 = 1.59e6; inactive.

Silencing of Polr1D + DCTN6-p27 resulted in: firefly reporter light, replicate 1 = 1.85e5; firefly reporter light, replicate 2 = 1.83e5; Renilla control light, replicate 1 = 1.41e6; Renilla control light, replicate 2 = 1.55e6; inactive. After knock-down of CG12075 #1, the screen gave firefly reporter light, replicate 1 = 47288; firefly reporter light, replicate 2 = 49888; Renilla control light, replicate 1 = 5.59e5; Renilla control light, replicate 2 = 4.70e5; inactive. CG12075 #2 showed firefly reporter light, replicate 1 = 8.45e5; firefly reporter light, replicate 2 = 1.03e6; Renilla control light, replicate 1 = 1.16e6; Renilla control light, replicate 2 = 1.14e6; inactive. Silencing of ko #1 resulted in: firefly reporter light, replicate 1 = 2.16e5; firefly reporter light, replicate 2 = 2.65e5; Renilla control light, replicate 1 = 1.93e6; Renilla control light, replicate 2 = 1.95e6; inactive. Depletion of ko #2 gave: firefly reporter light, replicate 1 = 2.38e5; firefly reporter light, replicate 2 = 2.87e5; Renilla control light, replicate 1 = 6.16e5; Renilla control light, replicate 2 = 6.21e5; inactive. After knock-down of yellow-e3 the results were firefly reporter light, replicate 1 = 91171; firefly reporter light, replicate 2 = 1.13e5; Renilla control light, replicate 1 = 1.52e6; Renilla control light, replicate 2 = 2.36e6; inactive.

Laid out differently: 2 of the entries above
{"target":"Polr1D + DCTN6-p27","dsRNA no.":1,"firefly reporter light, replicate 1":1.85e5,"firefly reporter light, replicate 2":1.83e5,"Renilla control light, replicate 1":1.41e6,"Renilla control light, replicate 2":1.55e6,"Call":"inactive"}
{"target":"CG12075","dsRNA no.":1,"firefly reporter light, replicate 1":47288,"firefly reporter light, replicate 2":49888,"Renilla control light, replicate 1":5.59e5,"Renilla control light, replicate 2":4.70e5,"Call":"inactive"}
